{"source": "patent US20140328797A1", "binders": {"B1": {"name": "TCN-711 (6893_E11) (antibody, human IgG1, lambda, V domains shown)", "VH": "QVQLHQWGTGVLKPSGTLSLTCGVYGGSLTDFYWTWIRQSPARGLEWLGEIDRDGATYYNPSLKSRITISIDTSKKQFSLNLRSVTAADRAVYYCARRPMLRGVWGNFRSNWFDPWGQGTQVTVSS", "VL": "QSVLTQPPSVSAAPGQKVSISCSGSSSNIGYSYVSWYQQVPGSAPKLLIYENNKRPSGIPDRFSASKSGTSATLDITGLQTGDEADYYCGTWDTRLFGGVFGGGTKLTVLG"}}, "key": {"[1]": {"biological_target": "HRV-C untagged C15 virus strain (human rhinovirus)", "experiment": "summary of Example 3"}, "[2]": {"biological_target": "HRV-08 (human rhinovirus)", "experiment": "imaging of infected, fixed, permeabilized HeLa cells; mAb at 2 µg/ml"}, "[3]": {"biological_target": "HRV-12 (human rhinovirus)", "experiment": "imaging of infected, fixed, permeabilized HeLa cells; mAb at 2 µg/ml"}, "[4]": {"biological_target": "HRV-13 (human rhinovirus)", "experiment": "imaging of infected, fixed, permeabilized HeLa cells; mAb at 2 µg/ml"}, "[5]": {"biological_target": "HRV-21 (human rhinovirus)", "experiment": "imaging of infected, fixed, permeabilized HeLa cells; mAb at 2 µg/ml"}, "[6]": {"biological_target": "HRV-23 (human rhinovirus)", "experiment": "imaging of infected, fixed, permeabilized HeLa cells; mAb at 2 µg/ml"}, "[7]": {"biological_target": "HRV-24 (human rhinovirus)", "experiment": "imaging of infected, fixed, permeabilized HeLa cells; mAb at 2 µg/ml"}, "[8]": {"biological_target": "HRV-28 (human rhinovirus)", "experiment": "imaging of infected, fixed, permeabilized HeLa cells; mAb at 2 µg/ml"}, "[9]": {"biological_target": "HRV-29 (human rhinovirus)", "experiment": "imaging of infected, fixed, permeabilized HeLa cells; mAb at 2 µg/ml"}, "[10]": {"biological_target": "HRV-31 (human rhinovirus)", "experiment": "imaging of infected, fixed, permeabilized HeLa cells; mAb at 2 µg/ml"}, "[11]": {"biological_target": "HRV-34 (human rhinovirus)", "experiment": "imaging of infected, fixed, permeabilized HeLa cells; mAb at 2 µg/ml"}, "[12]": {"biological_target": "HRV-36 (human rhinovirus)", "experiment": "imaging of infected, fixed, permeabilized HeLa cells; mAb at 2 µg/ml"}, "[13]": {"biological_target": "HRV-37 (human rhinovirus)", "experiment": "imaging of infected, fixed, permeabilized HeLa cells; mAb at 2 µg/ml"}, "[14]": {"biological_target": "HRV-38 (human rhinovirus)", "experiment": "imaging of infected, fixed, permeabilized HeLa cells; mAb at 2 µg/ml"}, "[15]": {"biological_target": "HRV-40 (human rhinovirus)", "experiment": "imaging of infected, fixed, permeabilized HeLa cells; mAb at 2 µg/ml"}, "[16]": {"biological_target": "HRV-45 (human rhinovirus)", "experiment": "imaging of infected, fixed, permeabilized HeLa cells; mAb at 2 µg/ml"}, "[17]": {"biological_target": "HRV-49 (human rhinovirus)", "experiment": "imaging of infected, fixed, permeabilized HeLa cells; mAb at 2 µg/ml"}, "[18]": {"biological_target": "HRV-51 (human rhinovirus)", "experiment": "imaging of infected, fixed, permeabilized HeLa cells; mAb at 2 µg/ml"}, "[19]": {"biological_target": "HRV-52 (human rhinovirus)", "experiment": "imaging of infected, fixed, permeabilized HeLa cells; mAb at 2 µg/ml"}, "[20]": {"biological_target": "HRV-54 (human rhinovirus)", "experiment": "imaging of infected, fixed, permeabilized HeLa cells; mAb at 2 µg/ml"}, "[21]": {"biological_target": "HRV-61 (human rhinovirus)", "experiment": "imaging of infected, fixed, permeabilized HeLa cells; mAb at 2 µg/ml"}, "[22]": {"biological_target": "HRV-62 (human rhinovirus)", "experiment": "imaging of infected, fixed, permeabilized HeLa cells; mAb at 2 µg/ml"}, "[23]": {"biological_target": "HRV-63 (human rhinovirus)", "experiment": "imaging of infected, fixed, permeabilized HeLa cells; mAb at 2 µg/ml"}, "[24]": {"biological_target": "HRV-67 (human rhinovirus)", "experiment": "imaging of infected, fixed, permeabilized HeLa cells; mAb at 2 µg/ml"}, "[25]": {"biological_target": "HRV-70 (human rhinovirus)", "experiment": "imaging of infected, fixed, permeabilized HeLa cells; mAb at 2 µg/ml"}, "[26]": {"biological_target": "HRV-74 (human rhinovirus)", "experiment": "imaging of infected, fixed, permeabilized HeLa cells; mAb at 2 µg/ml"}, "[27]": {"biological_target": "HRV-75 (human rhinovirus)", "experiment": "imaging of infected, fixed, permeabilized HeLa cells; mAb at 2 µg/ml"}, "[28]": {"biological_target": "HRV-76 (human rhinovirus)", "experiment": "imaging of infected, fixed, permeabilized HeLa cells; mAb at 2 µg/ml"}, "[29]": {"biological_target": "HRV-83 (human rhinovirus)", "experiment": "imaging of infected, fixed, permeabilized HeLa cells; mAb at 2 µg/ml"}, "[30]": {"biological_target": "HRV-84 (human rhinovirus)", "experiment": "imaging of infected, fixed, permeabilized HeLa cells; mAb at 2 µg/ml"}, "[31]": {"biological_target": "HRV-86 (human rhinovirus)", "experiment": "imaging of infected, fixed, permeabilized HeLa cells; mAb at 2 µg/ml"}, "[32]": {"biological_target": "HRV-88 (human rhinovirus)", "experiment": "imaging of infected, fixed, permeabilized HeLa cells; mAb at 2 µg/ml"}, "[33]": {"biological_target": "HRV-93 (human rhinovirus)", "experiment": "imaging of infected, fixed, permeabilized HeLa cells; mAb at 2 µg/ml"}, "[34]": {"biological_target": "HRV-C untagged C15 virus strain (human rhinovirus)", "experiment": "immunofluorescence on HeLa cells transfected with HRV-C genomic RNA"}, "[35]": {"biological_target": "HRV-C untagged C15 virus strain (human rhinovirus)", "experiment": "immunofluorescence microscopy, fixed and permeabilized transfected HeLa cells"}, "[36]": {"biological_target": "HRV-26 (human rhinovirus)", "experiment": "imaging of infected, fixed, permeabilized HeLa cells; Alexafluor-647 anti-human Fc"}, "[37]": {"biological_target": "HRV-48 (human rhinovirus)", "experiment": "imaging of infected, fixed, permeabilized HeLa cells; Alexafluor-647 anti-human Fc"}, "[38]": {"biological_target": "HRV-64 (human rhinovirus)", "experiment": "imaging of infected, fixed, permeabilized HeLa cells; Alexafluor-647 anti-human Fc"}}, "note": "Results are given in words; binding and its absence hold for the method and conditions named. For some assays here: Binding can be weak; no strength is given.", "data": [{"binder": "B1", "values": [{"measurement": "binding", "setting": "[1]", "result": "binds"}, {"measurement": "binding", "setting": "[2]", "result": "binds"}, {"measurement": "binding", "setting": "[3]", "result": "binds"}, {"measurement": "binding", "setting": "[4]", "result": "binds"}, {"measurement": "binding", "setting": "[5]", "result": "binds"}, {"measurement": "binding", "setting": "[6]", "result": "binds"}, {"measurement": "binding", "setting": "[7]", "result": "binds"}, {"measurement": "binding", "setting": "[8]", "result": "binds"}, {"measurement": "binding", "setting": "[9]", "result": "binds"}, {"measurement": "binding", "setting": "[10]", "result": "binds"}, {"measurement": "binding", "setting": "[11]", "result": "binds"}, {"measurement": "binding", "setting": "[12]", "result": "binds"}, {"measurement": "binding", "setting": "[13]", "result": "binds"}, {"measurement": "binding", "setting": "[14]", "result": "binds"}, {"measurement": "binding", "setting": "[15]", "result": "binds"}, {"measurement": "binding", "setting": "[16]", "result": "binds"}, {"measurement": "binding", "setting": "[17]", "result": "binds"}, {"measurement": "binding", "setting": "[18]", "result": "binds"}, {"measurement": "binding", "setting": "[19]", "result": "binds"}, {"measurement": "binding", "setting": "[20]", "result": "binds"}, {"measurement": "binding", "setting": "[21]", "result": "binds"}, {"measurement": "binding", "setting": "[22]", "result": "binds"}, {"measurement": "binding", "setting": "[23]", "result": "binds"}, {"measurement": "binding", "setting": "[24]", "result": "binds"}, {"measurement": "binding", "setting": "[25]", "result": "binds"}, {"measurement": "binding", "setting": "[26]", "result": "binds"}, {"measurement": "binding", "setting": "[27]", "result": "binds"}, {"measurement": "binding", "setting": "[28]", "result": "binds"}, {"measurement": "binding", "setting": "[29]", "result": "binds"}, {"measurement": "binding", "setting": "[30]", "result": "binds"}, {"measurement": "binding", "setting": "[31]", "result": "binds"}, {"measurement": "binding", "setting": "[32]", "result": "binds"}, {"measurement": "binding", "setting": "[33]", "result": "binds"}, {"measurement": "binding", "setting": "[34]", "result": "binds"}, {"measurement": "binding", "setting": "[35]", "result": "binds"}, {"measurement": "binding", "setting": "[36]", "result": "no binding (tested: 2 µg/ml)"}, {"measurement": "binding", "setting": "[37]", "result": "no binding (tested: 2 µg/ml)"}, {"measurement": "binding", "setting": "[38]", "result": "no binding (tested: 2 µg/ml)"}]}]}
